The record followed here is publication doi:10.1101/2023.09.07.556670.

This assay addresses full-length TBEV NS5 fused to the Gal4 DNA-binding domain (tick-borne encephalitis virus (TBEV)) (UniProt Q01299). Put plainly: two-hybrid.

These are yes or no findings as the source states them, for the method shown. Binding calls can cover weak binding; strength is not graded here.

As to “C-terminal domain of bovine TYK2 fused to the Gal4 activation domain (from UniProt F1MCX4) (domain or fragment)”, the binding result was “binds”.

For “C-terminal domain of goat TYK2 fused to the Gal4 activation domain (from UniProt A0A452F668) (domain or fragment)”, the binding result is given as “binds”.
